Test results as given in article PMC10989685.
Where a chain is given by its changes, count along the chain named. No constants are given. Whether binding was seen depends on the method and setting. Some results given as binding are weak or reduced against the parent protein; the word gives no strength. Tags and fused reporters may be left off the sequences shown.

The chains behind the UniProt entries cited, without tags or fusion partners. Residues count along the entry.
UniProt E9Q7X7, residues 29-1634: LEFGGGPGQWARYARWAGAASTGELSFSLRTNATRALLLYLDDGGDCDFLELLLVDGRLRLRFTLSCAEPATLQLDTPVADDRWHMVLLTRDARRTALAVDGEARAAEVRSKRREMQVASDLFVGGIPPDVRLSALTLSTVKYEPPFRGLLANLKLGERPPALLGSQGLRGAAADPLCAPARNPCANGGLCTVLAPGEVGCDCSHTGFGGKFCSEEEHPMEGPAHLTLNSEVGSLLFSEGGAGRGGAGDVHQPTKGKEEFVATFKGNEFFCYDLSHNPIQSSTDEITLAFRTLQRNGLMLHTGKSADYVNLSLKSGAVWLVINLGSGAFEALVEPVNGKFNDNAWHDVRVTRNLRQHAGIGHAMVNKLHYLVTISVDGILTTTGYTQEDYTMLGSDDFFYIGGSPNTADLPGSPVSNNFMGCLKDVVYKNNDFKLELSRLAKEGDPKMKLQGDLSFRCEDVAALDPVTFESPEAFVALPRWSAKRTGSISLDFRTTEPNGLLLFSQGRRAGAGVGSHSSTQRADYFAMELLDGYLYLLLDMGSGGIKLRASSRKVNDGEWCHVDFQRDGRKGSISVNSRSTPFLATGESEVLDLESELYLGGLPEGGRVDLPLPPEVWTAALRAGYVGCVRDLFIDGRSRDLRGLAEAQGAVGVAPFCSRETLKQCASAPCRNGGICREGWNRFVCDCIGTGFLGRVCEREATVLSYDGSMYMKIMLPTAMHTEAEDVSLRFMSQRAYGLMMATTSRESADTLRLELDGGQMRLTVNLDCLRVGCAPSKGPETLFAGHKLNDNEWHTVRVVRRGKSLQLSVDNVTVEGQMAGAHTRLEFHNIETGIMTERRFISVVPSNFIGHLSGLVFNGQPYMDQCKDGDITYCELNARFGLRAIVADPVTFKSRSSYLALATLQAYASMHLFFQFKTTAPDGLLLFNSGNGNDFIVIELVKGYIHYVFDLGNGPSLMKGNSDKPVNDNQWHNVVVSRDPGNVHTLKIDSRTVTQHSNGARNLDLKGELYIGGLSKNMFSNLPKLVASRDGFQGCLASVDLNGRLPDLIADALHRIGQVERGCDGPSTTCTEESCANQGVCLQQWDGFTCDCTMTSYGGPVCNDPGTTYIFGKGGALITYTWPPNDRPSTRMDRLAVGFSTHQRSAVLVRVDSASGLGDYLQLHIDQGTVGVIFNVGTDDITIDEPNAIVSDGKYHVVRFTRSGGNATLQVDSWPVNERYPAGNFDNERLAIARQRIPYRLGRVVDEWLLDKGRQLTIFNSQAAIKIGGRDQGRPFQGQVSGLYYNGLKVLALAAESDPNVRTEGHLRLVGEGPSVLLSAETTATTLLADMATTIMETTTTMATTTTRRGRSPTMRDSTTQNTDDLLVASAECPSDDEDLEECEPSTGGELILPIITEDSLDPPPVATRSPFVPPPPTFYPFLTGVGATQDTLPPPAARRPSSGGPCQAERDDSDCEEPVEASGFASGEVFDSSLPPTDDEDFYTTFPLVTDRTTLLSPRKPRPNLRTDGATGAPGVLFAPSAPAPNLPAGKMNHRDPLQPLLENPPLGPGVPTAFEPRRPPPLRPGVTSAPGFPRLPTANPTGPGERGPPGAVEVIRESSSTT

Key:
Assay in all cases: in situ cell surface binding assay (fluorescence microscopy); HEK293T conditioned medium with Nrxn2α-Fc applied for 1 h at 4°C to COS7 cells expressing HA-tagged IgSF21 forms, in extracellular solution with 2 mM CaCl2, 1.3 mM MgCl2; bound Fc signal divided by surface HA signal and normalised to IgSF21 WT
[1] = target: T1, IgSF21-HA R102D (mouse) (UniProt Q7TNR6)
T1 sequence: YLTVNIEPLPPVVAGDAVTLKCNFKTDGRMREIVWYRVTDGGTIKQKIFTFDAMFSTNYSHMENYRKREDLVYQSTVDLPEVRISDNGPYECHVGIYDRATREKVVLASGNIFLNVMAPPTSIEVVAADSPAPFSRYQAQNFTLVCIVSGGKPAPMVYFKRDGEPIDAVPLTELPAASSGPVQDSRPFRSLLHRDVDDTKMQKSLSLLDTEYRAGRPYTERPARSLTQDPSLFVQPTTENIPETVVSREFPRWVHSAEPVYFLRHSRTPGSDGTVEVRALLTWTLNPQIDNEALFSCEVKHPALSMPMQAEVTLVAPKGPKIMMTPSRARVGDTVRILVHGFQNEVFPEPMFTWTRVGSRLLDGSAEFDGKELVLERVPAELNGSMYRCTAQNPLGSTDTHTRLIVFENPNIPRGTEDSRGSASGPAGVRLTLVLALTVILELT

[2] = target: T2, IgSF21-HA D76E (mouse) (UniProt Q7TNR6)
T2 sequence: T1 sequence with D52E, D78R

[3] = target: T3, IgSF21-HA R102K (mouse) (UniProt Q7TNR6)
T3 sequence: T1 sequence with D78K

binding [1]: binds
binding [2]: no binding
binding [3]: binds
Substance: soluble Fc-tagged mouse Nrxn2α ectodomain (Nrxn2α-Fc) (from UniProt E9Q7X7 29-1634) (Fc fusion)
